From article PMC12120064 come the findings set out here.

The chains behind the UniProt entries cited, without tags or fusion partners. Where a name states a change or a piece, a line headed by the entry shows the natural chain unless it says otherwise.
UniProt P13688: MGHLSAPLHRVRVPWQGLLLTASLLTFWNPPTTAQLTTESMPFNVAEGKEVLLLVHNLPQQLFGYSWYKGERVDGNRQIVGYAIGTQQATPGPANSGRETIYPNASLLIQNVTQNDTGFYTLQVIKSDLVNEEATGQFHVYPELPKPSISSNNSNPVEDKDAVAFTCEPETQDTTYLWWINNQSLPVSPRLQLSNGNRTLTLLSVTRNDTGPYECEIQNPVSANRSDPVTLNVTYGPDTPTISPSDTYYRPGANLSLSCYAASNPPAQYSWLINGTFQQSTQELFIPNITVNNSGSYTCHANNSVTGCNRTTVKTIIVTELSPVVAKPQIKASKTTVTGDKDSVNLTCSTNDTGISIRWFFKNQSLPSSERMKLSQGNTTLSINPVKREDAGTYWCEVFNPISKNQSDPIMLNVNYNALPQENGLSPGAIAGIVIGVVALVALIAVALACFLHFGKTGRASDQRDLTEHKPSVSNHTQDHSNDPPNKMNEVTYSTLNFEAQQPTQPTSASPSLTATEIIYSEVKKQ
UniProt P21333: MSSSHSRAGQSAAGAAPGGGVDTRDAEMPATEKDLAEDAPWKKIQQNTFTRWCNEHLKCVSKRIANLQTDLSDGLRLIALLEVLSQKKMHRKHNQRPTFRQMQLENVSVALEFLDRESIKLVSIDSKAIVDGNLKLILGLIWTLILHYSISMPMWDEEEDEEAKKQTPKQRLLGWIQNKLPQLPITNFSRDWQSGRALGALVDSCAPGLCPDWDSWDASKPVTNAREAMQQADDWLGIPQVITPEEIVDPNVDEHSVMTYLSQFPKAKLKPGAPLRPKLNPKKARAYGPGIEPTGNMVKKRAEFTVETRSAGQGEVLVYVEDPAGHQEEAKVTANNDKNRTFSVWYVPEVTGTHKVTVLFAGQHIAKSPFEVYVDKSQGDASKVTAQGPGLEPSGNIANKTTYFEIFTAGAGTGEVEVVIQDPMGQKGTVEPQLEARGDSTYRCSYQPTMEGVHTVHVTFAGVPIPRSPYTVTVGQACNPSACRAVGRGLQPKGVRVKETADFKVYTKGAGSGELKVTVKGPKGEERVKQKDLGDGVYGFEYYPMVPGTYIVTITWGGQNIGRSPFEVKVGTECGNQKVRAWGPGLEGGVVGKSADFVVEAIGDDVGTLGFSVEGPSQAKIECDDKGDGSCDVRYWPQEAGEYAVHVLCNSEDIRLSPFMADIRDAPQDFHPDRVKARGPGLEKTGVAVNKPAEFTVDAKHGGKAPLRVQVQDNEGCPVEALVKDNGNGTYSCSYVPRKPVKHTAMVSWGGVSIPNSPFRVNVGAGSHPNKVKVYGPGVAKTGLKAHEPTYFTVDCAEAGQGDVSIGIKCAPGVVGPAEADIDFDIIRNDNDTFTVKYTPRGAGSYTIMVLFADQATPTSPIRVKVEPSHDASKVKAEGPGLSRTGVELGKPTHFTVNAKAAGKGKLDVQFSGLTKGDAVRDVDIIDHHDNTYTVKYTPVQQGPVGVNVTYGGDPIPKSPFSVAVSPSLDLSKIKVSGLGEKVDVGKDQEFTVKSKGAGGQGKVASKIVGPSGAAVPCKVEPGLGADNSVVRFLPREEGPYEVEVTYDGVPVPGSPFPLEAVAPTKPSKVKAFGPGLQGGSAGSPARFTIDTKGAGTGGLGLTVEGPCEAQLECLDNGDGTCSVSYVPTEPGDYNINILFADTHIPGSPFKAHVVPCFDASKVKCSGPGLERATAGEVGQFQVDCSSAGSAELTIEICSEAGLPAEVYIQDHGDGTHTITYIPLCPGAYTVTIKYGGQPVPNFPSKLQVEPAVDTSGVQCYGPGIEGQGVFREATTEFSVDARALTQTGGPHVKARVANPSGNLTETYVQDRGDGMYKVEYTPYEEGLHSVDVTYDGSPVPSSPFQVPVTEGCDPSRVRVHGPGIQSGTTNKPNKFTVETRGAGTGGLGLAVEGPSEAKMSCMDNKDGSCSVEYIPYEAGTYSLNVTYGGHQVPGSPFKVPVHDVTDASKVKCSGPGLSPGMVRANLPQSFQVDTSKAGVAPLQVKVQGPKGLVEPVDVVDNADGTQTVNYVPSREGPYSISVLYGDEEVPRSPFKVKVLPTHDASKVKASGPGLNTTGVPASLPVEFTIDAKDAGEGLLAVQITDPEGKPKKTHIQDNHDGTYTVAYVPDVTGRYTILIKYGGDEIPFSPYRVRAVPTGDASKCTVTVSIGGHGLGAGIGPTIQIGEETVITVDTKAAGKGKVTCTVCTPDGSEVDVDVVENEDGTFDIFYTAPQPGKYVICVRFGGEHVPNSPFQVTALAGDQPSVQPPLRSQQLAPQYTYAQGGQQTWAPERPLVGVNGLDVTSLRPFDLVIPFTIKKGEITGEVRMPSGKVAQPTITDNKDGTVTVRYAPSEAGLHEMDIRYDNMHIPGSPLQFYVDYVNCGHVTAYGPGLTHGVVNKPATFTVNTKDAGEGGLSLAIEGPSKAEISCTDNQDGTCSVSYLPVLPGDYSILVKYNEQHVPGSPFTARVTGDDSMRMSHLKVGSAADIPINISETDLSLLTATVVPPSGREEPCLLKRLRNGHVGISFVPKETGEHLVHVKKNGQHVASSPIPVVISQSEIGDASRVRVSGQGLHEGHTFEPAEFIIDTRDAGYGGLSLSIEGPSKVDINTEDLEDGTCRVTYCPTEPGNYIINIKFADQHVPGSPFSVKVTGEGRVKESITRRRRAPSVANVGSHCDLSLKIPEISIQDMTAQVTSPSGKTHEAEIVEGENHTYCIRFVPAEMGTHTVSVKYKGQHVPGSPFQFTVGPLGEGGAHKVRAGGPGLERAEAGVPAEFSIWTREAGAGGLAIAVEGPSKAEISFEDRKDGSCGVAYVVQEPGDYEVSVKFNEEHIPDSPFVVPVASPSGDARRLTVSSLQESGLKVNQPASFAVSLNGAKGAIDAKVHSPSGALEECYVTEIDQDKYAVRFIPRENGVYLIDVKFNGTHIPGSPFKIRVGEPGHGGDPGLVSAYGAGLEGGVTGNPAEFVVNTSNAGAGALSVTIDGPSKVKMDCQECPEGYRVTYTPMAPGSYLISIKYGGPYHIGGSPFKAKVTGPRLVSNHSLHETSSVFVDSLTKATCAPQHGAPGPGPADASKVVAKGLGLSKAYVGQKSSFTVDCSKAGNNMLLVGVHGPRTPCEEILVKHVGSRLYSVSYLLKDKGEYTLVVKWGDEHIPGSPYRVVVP

No constants are given. Whether binding was seen depends on the method and setting. In cells and extracts the contact can be indirect.

The target of this experiment is N-domain deleted (ΔN) CEACAM1 (UniProt P13688). Description: co-IP; CEACAM1-knockout JEKO-1 cells reconstituted with 4L, Y493F/Y520F or ΔN CEACAM1, stimulated with 2 μg/ml anti-IgM for the indicated times; CEACAM1 immunoprecipitated, immunoblot; IP buffer 50 mM Tris-HCl, 150 mM NaCl, 1% Triton X-100, 2 mM EDTA. In general terms: In western blotting, separated proteins are transferred to a membrane and probed.

As for “filamin A (FLNA) (from UniProt P21333 1-2647)”, the binding result is recorded as “no binding”.
